PubChem BioAssay AID504793, Drosophila RNAi Screening Center, 2011
The screen tested about 23,000 reagents; shown is an unselected part of those that have a named target and a result. In the full data, 62 (0.27%) are marked active. 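Calls come from follow-up tests whose scores are not deposited, so confirmed genes may have low counts here; counts are not normalised per plate.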 Raw values vary from plate to plate and are shown uncorrected.

- Purpose: 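Whole-genome screen for parts of the DNA damage checkpoint at G2/M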 (primary screen)
- Cell system: Drosophila S2R+ cells
- Reagents: long dsRNA against Drosophila genes, about 0.25 µg dsRNA per well
- Timing: 4 days of dsRNA, then 4 hours of drug before read-out
- Treatment: doxorubicin 0.5 µM for 4 hours to cause double-strand breaks, in cells also given a low, harmless dose of dsRNA against nbs to sensitise the assay
- Measurement: 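Mitotic index as the number of phospho-histone H3-positive cells in each well following doxorubicin, given as raw counts without normalisation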
- Reading the numbers: mitotic cells: higher = more cells in mitosis, weaker G2 arrest
- Active means: 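Genes are called active only when high mitotic counts were reproduced with independent dsRNAs and mitosis was checked for delay without damage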
- Calls: active = confirmed in follow-up tests; inactive = not confirmed

CG9926 [DRSC16582]
- mitotic cells, replicate 1: 2
- Call: inactive

CG9926 [DRSC29175]
- mitotic cells, replicate 1: 5
- Call: inactive

CG31145 [DRSC14206]
- mitotic cells, replicate 1: 10
- Call: inactive

CG31145 [DRSC14671]
- mitotic cells, replicate 1: 8
- Call: inactive

CG31145 [DRSC26758]
- mitotic cells, replicate 1: 2
- Call: inactive

CG13912 [DRSC08381]
- mitotic cells, replicate 1: 1
- Call: inactive

AstA-R1 [DRSC17278]
- mitotic cells, replicate 1: 9
- Call: inactive

AstA-R1 [DRSC17727]
- mitotic cells, replicate 1: 3
- Call: inactive

CG14561 [DRSC11722]
- mitotic cells, replicate 1: 4
- Call: inactive

Uch-L5R [DRSC19825]
- mitotic cells, replicate 1: 8
- Call: inactive

CG14448 [DRSC11705]
- mitotic cells, replicate 1: 5
- Call: inactive

CG14448 [DRSC30062]
- mitotic cells, replicate 1: 1
- Call: inactive

hzg [DRSC23382]
- mitotic cells, replicate 1: 5
- Call: inactive

Dhdds [DRSC17756]
- mitotic cells, replicate 1: 8
- Call: inactive

Dhdds [DRSC29011]
- mitotic cells, replicate 1: 6
- Call: inactive

Ak1 [DRSC10248]
- mitotic cells, replicate 1: 7
- Call: inactive

Ak1 [DRSC29837]
- mitotic cells, replicate 1: 7
- Call: inactive

dind [DRSC16294]
- mitotic cells, replicate 1: 11
- Call: inactive

dind [DRSC27615]
- Call: inactive

Nak [DRSC03379]
- mitotic cells, replicate 1: 4
- Call: inactive

Nak [DRSC27565]
- mitotic cells, replicate 1: 6
- Call: inactive

OS9 [DRSC02700]
- mitotic cells, replicate 1: 6
- Call: inactive

OS9 [DRSC27743]
- mitotic cells, replicate 1: 7
- Call: inactive
